Assay results reported in patent US20240401071A1.
These are yes or no findings as the source states them, for the method shown. Binding calls can cover weak binding; strength is not graded here. Where a sequence is shown, tags or fusion partners need not be part of it.

Target: small subunit of Rubisco (rbcS) (Arabidopsis thaliana)
Test: summary of the IPMS result

B1: PRL-1-eGFP (C-terminal GFP fusion with PRL-1, ribulose bisphosphate carboxylase/oxygenase large subunit-related, Potri.012G062600) (protein, not shown: large carriers)
chain: MGHQPRLGHDRPYGVVGRTGFSFLQRTCSLIRDIYFTQDWVSLPSVLPVASGGIHVWHMPALTEIFGDDSVLQFDGGTLGHPWGIAPSAVANRVALEACVQARNEGRDLAREGNEIIREASKWSPELAAACEVWKEIKFEFQAMDML
In the case of B1, the binding is reported as “binds”.
